This assay addresses T1, human p22^phox (human) (UniProt P13498).
T1 sequence: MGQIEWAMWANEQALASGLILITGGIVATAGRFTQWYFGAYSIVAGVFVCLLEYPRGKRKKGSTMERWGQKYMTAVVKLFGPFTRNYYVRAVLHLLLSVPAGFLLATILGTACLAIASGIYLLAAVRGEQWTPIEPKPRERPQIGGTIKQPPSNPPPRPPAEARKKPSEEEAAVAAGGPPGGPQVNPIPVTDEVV
Nature of the assay: immunoaffinity co-purification + SEC; DDM/CHS-solubilised PLB-985 membranes applied to Protein G Sepharose prepacked with the p22phox-specific mAb CS9; eluted with 200 uM p22phox epitope peptide; then gel filtration on Superdex 200 Increase 5/150; 10 mM HEPES pH 7.4, 10 mM NaCl, 100 mM KCl, 0.026% DDM, 0.0052% CHS. For orientation: Size exclusion chromatography separates by hydrodynamic size, large species first.

These are yes or no findings as the source states them, for the method shown. Some results given as binding are weak or reduced against the parent protein; the word gives no strength.

B1: human NOX2 (enzyme, UniProt P04839 1-570)
chain: MGNWAVNEGLSIFVILVWLGLNVFLFVWYYRVYDIPPKFFYTRKLLGSALALARAPAACLNFNCMLILLPVCRNLLSFLRGSSACCSTRVRRQLDRNLTFHKMVAWMIALHSAIHTIAHLFNVEWCVNARVNNSDPYSVALSELGDRQNESYLNFARKRIKNPEGGLYLAVTLLAGITGVVITLCLILIITSSTKTIRRSYFEVFWYTHHLFVIFFIGLAIHGAERIVRGQTAESLAVHNITVCEQKISEWGKIKECPIPQFAGNPPMTWKWIVGPMFLYLCERLVRFWRSQQKVVITKVVTHPFKTIELQMKKKGFKMEVGQYIFVKCPKVSKLEWHPFTLTSAPEEDFFSIHIRIVGDWTEGLFNACGCDKQEFQDAWKLPKIAVDGPFGTASEDVFSYEVVMLVGAGIGVTPFASILKSVWYKYCNNATNLKLKKIYFYWLCRDTHAFEWFADLLQLLESQMQERNNAGFLSYNIYLTGWDESQANHFAVHHDEEKDVITGLKQKTLYGRPNWDNEFKTIASQHPNTRIGVFLCGPEALAETLSKQSISNSESGPRGVHFIFNKENF
For B1, the binding entry was “binds”.
